The source gives many values for each of these; only a part stands here.
Test system: carrageenan-induced toe swelling in SD rats
Test: Carrageenan-induced acute toe swelling in rats
Format: in vivo, rat
Parameters: unit not given here
Experimental: SD rats were divided into blank model group, dexamethasone-positive group (5 mg/kg) and mPEG-HM-1 test group. The drug was administered once a day, and the model group was given the same volume of normal saline for 3 days and fed normally. At the first hour after the last administration, 0.1 mL of 1% carrageenan was injected subcutaneously into the right hind paw of the rats to induce inflammation. The volume of the foot was measured at 1 h, 3 h, 5 h, and 7 h after inflammation. The degree of swelling of the foot was calculated according to the following formula: the degree of swelling of the foot (mL)=the volume of the foot after inflammation−the volume before inflammation. Record the number of milliliters of spilled liquid (method: use the ballpoint pen to circle as the measurement mark at the protruding point of the right joint, and then put the right hind foot of each mouse into the volume measuring device, so that the hind limb is exposed outside the cylinder, and the depth of the immersion was determined by coinciding the circle with the liquid surface. After the foot enters the liquid, the liquid level rises, and the volume of the overflow liquid is the volume of the right hind foot of the rat, and the normal volume of the right hind foot of each mouse is sequentially determined).

[1] = 20 mg/kg once a day for 3 days, 1 h after carrageenan
[2] = 20 mg/kg once a day for 3 days, 3 h after carrageenan
[3] = 20 mg/kg once a day for 3 days, 5 h after carrageenan
[4] = 20 mg/kg once a day for 3 days, 7 h after carrageenan
[5] = 80 mg/kg once a day for 3 days, 1 h after carrageenan
[6] = 80 mg/kg once a day for 3 days, 3 h after carrageenan
[7] = 80 mg/kg once a day for 3 days, 5 h after carrageenan
[8] = 80 mg/kg once a day for 3 days, 7 h after carrageenan

For “mPEG-bALD5k-Arg-Gly-Ala-Asp-Arg-Ala-Gly-Gly-Gly-Gly-Arg-Gly-Asp (RGADRAGGGGRGD; mPEG-butyraldehyde 5 kDa; printed: Arg-Gly-Ala-Asp-Arg-Ala-Gly-Gly-Gly-Gly-Arg-Gly-Asp) [mPEG-bALD5k-HM-1]”, the Swelling (10 mg/kg once a day for 3 days, 1 h after carrageenan) was 0.23 ± 0.11, the Swelling (10 mg/kg once a day for 3 days, 3 h after carrageenan) was 0.34 ± 0.12 and the Swelling (10 mg/kg once a day for 3 days, 5 h after carrageenan) was 0.40 ± 0.14. It also gave a Swelling (10 mg/kg once a day for 3 days, 7 h after carrageenan) of 0.32 ± 0.11, a Swelling [1] of 0.22 ± 0.13 and a Swelling [2] of 0.33 ± 0.18. For the same substance, the Swelling [3] was 0.36 ± 0.15 and the Swelling [4] was 0.34 ± 0.12.
Substance “mPEG-bALD10k-Arg-Gly-Ala-Asp-Arg-Ala-Gly-Gly-Gly-Gly-Arg-Gly-Asp (RGADRAGGGGRGD; mPEG-butyraldehyde 10 kDa; printed: Arg-Gly-Ala-Asp-Arg-Ala-Gly-Gly-Gly-Gly-Arg-Gly-Asp) [mPEG-bALD10k-HM-1]” has a Swelling [1] of 0.22 ± 0.14, a Swelling [2] of 0.32 ± 0.15 and a Swelling [3] of 0.41 ± 0.17. The Swelling [4] was 0.31 ± 0.12, the Swelling (40 mg/kg once a day for 3 days, 1 h after carrageenan) was 0.20 ± 0.12 and the Swelling (40 mg/kg once a day for 3 days, 3 h after carrageenan) was 0.32 ± 0.22. The Swelling (40 mg/kg once a day for 3 days, 5 h after carrageenan) was 0.38 ± 0.14 and the Swelling (40 mg/kg once a day for 3 days, 7 h after carrageenan) was 0.32 ± 0.11.
In the case of “mPEG-bALD20k-Arg-Gly-Ala-Asp-Arg-Ala-Gly-Gly-Gly-Gly-Arg-Gly-Asp (RGADRAGGGGRGD; mPEG-butyraldehyde 20 kDa; printed: Arg-Gly-Ala-Asp-Arg-Ala-Gly-Gly-Gly-Gly-Arg-Gly-Asp) [mPEG-bALD20k-HM-1]”, the Swelling [5] is reported as 0.27 ± 0.11, the Swelling [6] is reported as 0.34 ± 0.10 and the Swelling [7] is reported as 0.41 ± 0.12. For the same substance, the Swelling [8] was 0.33 ± 0.17.
With “mPEG-bALD40k-Arg-Gly-Ala-Asp-Arg-Ala-Gly-Gly-Gly-Gly-Arg-Gly-Asp (RGADRAGGGGRGD; mPEG-butyraldehyde 40 kDa; printed: Arg-Gly-Ala-Asp-Arg-Ala-Gly-Gly-Gly-Gly-Arg-Gly-Asp) [mPEG-bALD40k-HM-1]” the Swelling [5] was 0.28 ± 0.15, the Swelling [6] was 0.33 ± 0.12 and the Swelling [7] was 0.45 ± 0.16. It also gave a Swelling [8] of 0.37 ± 0.18, a Swelling (160 mg/kg once a day for 3 days, 1 h after carrageenan) of 0.25 ± 0.12 and a Swelling (160 mg/kg once a day for 3 days, 3 h after carrageenan) of 0.36 ± 0.13. For the same substance, the Swelling (160 mg/kg once a day for 3 days, 5 h after carrageenan) was 0.46 ± 0.17 and the Swelling (160 mg/kg once a day for 3 days, 7 h after carrageenan) was 0.36 ± 0.19.
